Values from PubChem BioAssay AID686943 (Drosophila RNAi Screening Center, 2013).
The screen tested about 23,000 reagents; below is a random part of those with a known target gene and a result. 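Extra replicates exist only for a retested subset of genes; insulin dose and duration not given; both raised and lowered dpERK matter.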 The numbers tell different reagents against one gene apart. Names joined by + are all predicted targets of the reagent. Not all columns of the deposit are shown. Not stated in the record: the amount of reagent, the time to read-out.

Test: 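Fly genes whose loss alters ERK activation after insulin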 (primary screen)
Cells: Drosophila S2R+ haemocyte-like cells expressing YFP-tagged ERK (Rolled)
Reagent: long dsRNA against Drosophila genes
Conditions: insulin stimulation versus unstimulated cells; dose and duration not given
Detection: 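Per-plate z-scores of phospho-ERK immunostaining normalised to YFP-tagged ERK, measured with and without insulin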
Reading the numbers: replicate 1, z-score of dpERK with insulin: higher = more active ERK per ERK-YFP after insulin

replicate 1, z-score of dpERK with insulin, by predicted target and reagent
PH4alphaEFB (GeneID 43620): #1 -1.04; #2 -0.27
GstE11 (GeneID 37128): #1 0.03
Argk1 (GeneID 39041): #1 0.5; #2 0.68; #3 0.77; #4 0.45; #5 0.62
CG5151 (GeneID 39772): #1 -2.26
CG4286 (GeneID 37416): #1 -1.58
Jhe (GeneID 36780): #1 0.37
Pal2 (GeneID 37746): #1 1.24
TwdlK (GeneID 43205): #1 -1.6
Vha100-4 (GeneID 42214): #1 -0.01
mesh (GeneID 43688): #1 0.78; #2 -0.15; #3 -0.17
CG43174 (retired record) + CG43173 (retired record): #1 -0.16
Gcn5 (GeneID 39431): #1 0.93
Ir7e (GeneID 7354417): #1 1.49
TM9SF3 (GeneID 38635): #1 0.47
Tengl4 (GeneID 41321): #1 0.83
CG8840 (GeneID 33557): #1 0.08
CG32650 (GeneID 326227): #1 0.98
Dbp80 (GeneID 3354919): #1 -0.05
Rpn7 (GeneID 42641): #1 -5.2
FoxL1 (GeneID 38471): #1 -0.7
Oatp30B (GeneID 34268): #1 0.64
CG5327 (GeneID 37138): #1 0.15
Frl (GeneID 39561): #1 0.26; #2 0.12; #3 1.64
IntS10 (GeneID 38444): #1 0.27
CG5355 (GeneID 34421): #1 -0.39
Naa20A (GeneID 32962): #1 -0.27
CG33272 (GeneID 2768958): #1 -3.44
CG13931 (GeneID 38212): #1 1.02
ATP8 (retired record) (GeneID 192468): #1 0.2
CG7069 (GeneID 42621): #1 -0.19
